# Microarray screen: hit calls

From ROBIN, a set of small-molecule microarray screens (doi:10.1002/anie.202211358).

Oligonucleotides screened, 5′ to 3′:
SAM-II: SAM-II riboswitch RNA pseudoknot, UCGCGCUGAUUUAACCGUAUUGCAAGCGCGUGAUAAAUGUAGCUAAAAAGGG. About 21,000 compounds screened, about 200 hits.
PreQ1: PreQ1 riboswitch RNA pseudoknot, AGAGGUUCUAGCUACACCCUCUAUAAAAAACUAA. From B. subtilis. About 24,000 compounds screened, about 170 hits.
TPP: TPP riboswitch RNA three-way junction, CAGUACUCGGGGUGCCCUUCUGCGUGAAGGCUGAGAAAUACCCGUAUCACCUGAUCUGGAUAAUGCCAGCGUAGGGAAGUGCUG. About 24,000 compounds screened, about 160 hits.

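Each compound is printed as two spots on a slide made to bind it covalently, so it has no test concentration; the read-out is fluorescence of the bound, labelled oligonucleotide. The data file lists only calls. An earlier report of the laboratory on the PreQ1, TPP and SAM-II riboswitches (doi:10.1038/s41467-019-09493-3) used 1 µM RNA for 2 h and required a mean Z-score above 3 (spot signal-to-noise against the whole library), a score well above that on a control array, and duplicate spots agreeing (coefficient of variation under 100); it then also set aside compounds that hit other targets, which this list keeps. The cut-offs behind this list may differ. A missing hit is not proof of no binding, and a hit is not a measured affinity.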
“yes” means called a hit, “no” means screened and not called a hit.
Compounds were drawn at random from those tested, without regard to their results.
A target missing from an entry has no call listed here.

{"compound": "Cc1ccc(C)c(NCc2nnc(-c3ccccc3)o2)c1", "PreQ1": "no", "TPP": "no"}
{"compound": "C#CCCOC(=O)Nc1ccccc1", "SAM-II": "no", "PreQ1": "no", "TPP": "no"}
{"compound": "N[C@@H]1CONC1=O", "SAM-II": "no", "PreQ1": "no", "TPP": "no"}
{"compound": "CC(C)c1ccc(OCC(O)CN2CCCCC2C)cc1", "stereo": "centres undefined", "SAM-II": "no", "PreQ1": "no", "TPP": "no"}
{"compound": "COc1ccc(-c2noc(-c3cccnc3NC3CCCCC3)n2)cc1", "PreQ1": "no", "TPP": "no"}
{"compound": "CCOC(=O)c1cc(CC)sc1NC(=O)CCNC1CCCCC1.O=C(O)C(=O)O", "SAM-II": "no", "PreQ1": "no", "TPP": "no"}
{"compound": "CCCc1nc(C(=O)N2CC[C@@H](c3sccc3C)[C@H](O)C2)cs1", "SAM-II": "no", "PreQ1": "no", "TPP": "no"}
{"compound": "Clc1ccc2nsnc2c1NC1=NCCN1", "SAM-II": "no", "PreQ1": "no", "TPP": "no"}
{"compound": "Cc1cc(N(CCO)CCO)n2ncnc2n1", "SAM-II": "no", "PreQ1": "no", "TPP": "no"}
{"compound": "O=C(c1ccc2[nH]c(=O)c(=O)[nH]c2c1)N1CCCC2(CCNCC2)CC1", "SAM-II": "no", "PreQ1": "no", "TPP": "no"}
{"compound": "Cc1ccccc1-c1noc(-c2nnn(-c3cc(Cl)ccc3C)c2N)n1", "PreQ1": "no", "TPP": "no"}
{"compound": "CC1CN(CC(O)COc2ccc3c(c2)OCO3)CC(C)O1.Cl", "stereo": "centres undefined", "SAM-II": "no", "PreQ1": "no", "TPP": "no"}
{"compound": "CNC(=O)C(N)C(C)O", "stereo": "centres undefined", "SAM-II": "no", "PreQ1": "no", "TPP": "no"}
{"compound": "Nc1nnnn1CC(=O)N1CCc2[nH]c3ccc(F)cc3c2C1", "SAM-II": "no", "PreQ1": "no", "TPP": "no"}
{"compound": "Cc1ccc(Nc2nc(C3(C)CC(C(C)C)C(=O)O3)cs2)cc1", "stereo": "centres undefined", "SAM-II": "no", "PreQ1": "no", "TPP": "no"}
{"compound": "Cc1ccc2[nH]c(CN(C)c3cc(C4CCNCC4)nc(C)n3)nc2c1", "SAM-II": "no", "PreQ1": "no", "TPP": "no"}
{"compound": "Cn1c(=O)n(C)c2cc(C(O)COc3ccc(CNCc4ccco4)cc3)ccc21", "stereo": "centres undefined", "PreQ1": "no", "TPP": "no"}
{"compound": "COC(=O)[C@H]1[C@H]2C[C@@H]3c4[nH]c5cc(OC)ccc5c4CCN3C[C@H]2C[C@@H](OC(=O)CC(C)=O)[C@@H]1OC", "SAM-II": "no", "PreQ1": "no", "TPP": "no"}
{"compound": "CC(C)c1ccc(CN2CCCC(O)(CNCc3n[nH]c(=O)[nH]3)C2=O)cc1", "stereo": "centres undefined", "SAM-II": "no", "PreQ1": "no", "TPP": "no"}
{"compound": "O=[N+]([O-])c1cccc(-c2cn(-c3ccccc3NCc3ccccc3)cn2)c1", "SAM-II": "no", "PreQ1": "no", "TPP": "no"}
{"compound": "Cc1cccc(OCC(O)Cn2c(C3CC(=O)N(c4ccc(F)cc4)C3)nc3ccccc32)c1", "stereo": "centres undefined", "PreQ1": "no", "TPP": "no"}
{"compound": "Cc1cccn2c(CNc3cc(N4CCOCC4)nc(N)n3)cnc12", "SAM-II": "no", "PreQ1": "no", "TPP": "no"}
{"compound": "N#Cc1nc(-c2ccc(S(=O)(=O)N3CCCCC3)cc2)oc1NC1CCCCC1", "PreQ1": "no", "TPP": "no"}

For reference, 2 entries once more:

compound	SAM-II	PreQ1	TPP
Cc1cc(N(CCO)CCO)n2ncnc2n1	no	no	no
N[C@@H]1CONC1=O	no	no	no